Experimental findings from patent publication US20220347236A1 are described below.

Assay [1] has as its target FcγRI recombinant protein. Put plainly: BLI response at 4 uM on immobilised FcγRI, bar chart.
Assay [2] has as its target FcγRIIA recombinant protein. Put plainly: BLI response at 4 uM on immobilised FcγRIIA, bar chart.
For assay [3], the target named is FcγRIIB recombinant protein. The assay can be described thus: BLI response at 4 uM on immobilised FcγRIIB, bar chart.
Assay [4] has as its target FcγRIIIA recombinant protein. Put plainly: BLI response at 4 uM on immobilised FcγRIIIA, bar chart.
Assay [5] concerns the target FcγRIIIB recombinant protein. Put plainly: BLI response at 4 uM on immobilised FcγRIIIB, bar chart.
Assay [6] has as its target FcγRI recombinant protein. The assay can be described thus: BLI (Octet RED384), receptor immobilised on AR2G biosensor, IgETRAP at various concentrations.
The target in assay [7] is FcγRIIA recombinant protein. The description is as above.
Assay [8] has as its target FcγRIIB recombinant protein. The description is as above.
Assay [9] deals with FcγRIIIA recombinant protein. The description is as above.
For assay [10], the target named is FcγRIIIB recombinant protein. Described as above.
The target of assay [11] is FcγRI recombinant protein. Put plainly: BLI (Octet RED384), FcγRI immobilised on AR2G biosensor, IgETRAP in solution at 0.25-4 µM.
The target of assay [12] is FcγRIIA recombinant protein. Put plainly: BLI (Octet RED384), FcγRIIA immobilised on AR2G biosensor, IgETRAP in solution at 0.25-4 µM.
The target of assay [13] is FcγRIIB recombinant protein. Put plainly: BLI (Octet RED384), FcγRIIB immobilised on AR2G biosensor, IgETRAP in solution at 0.25-4 µM.
Assay [14] deals with FcγRIIIA recombinant protein. Put plainly: BLI (Octet RED384), FcγRIIIA immobilised on AR2G biosensor, IgETRAP in solution at 0.25-4 µM.
Assay [15] concerns the target FcγRIIIB recombinant protein. The assay can be described thus: BLI (Octet RED384), FcγRIIIB immobilised on AR2G biosensor (sheet label FcγRIIIB), IgETRAP in solution at 0.25-4 µM.

Results are given in words; binding and its absence hold for the method and conditions named.

B1: FcεRIαECD-Fc2ST (Fc fusion)
chain: VPQKPKVSLNPPWNRIFKGENVTLTCNGNNFFEVSSTKWFHNGSLSEETNSSLNIVNAKFEDSGEYKCQHQQVNESEPVYLEVFSDWLLLQASAEVVMEGQPLFLRCHGWRNWDVYKVIYYKDGEALKYWYENHNISITNATVEDSGTYYCTGKVWQLDYESEPLNITVIKAPREKYWLQRNTGRGGEEKKGSKEKEEQEERETKTPECPSHTQPLGVFLFPPKPKDTLMISRTPEVTCVVVDVSQEDPEVQFNWYVDGVEVHNAKTKPREEQFNSTYRVVSVLTVLHQDWLNGKEYKCKVSNKGLPSSIEKTISKAKGQPREPQVYTLPPSQEEMTKNQVSLTCLVKGFYPSDIAVEWESNGQPENNYKTTPPVLDSDGSFFLYSRLTVDKSRWQEGNVFSCSVMHEALHNHYTQKSLSLSLGK
modifications: sialic acid added (α-2,6-sialic acid transferase co-expressed)
B1: the binding result in assay [1] is “no binding (tested: 4 uM)”; in assay [2] it was “no binding (tested: 4 uM)”; in assay [3], “no binding (tested: 4 uM)”; in assay [4] it was “no binding (tested: 4 uM)”; in assay [5] it was “no binding (tested: 4 uM)”; in assay [6] it was “no binding”. The binding result is given as “no binding” in assay [7]; “no binding” in [8]; “no binding” in assay [9]; “no binding” in assay [10]; “no binding (tested: 4 µM)” in assay [11]; “no binding (tested: 4 µM)” in assay [12]. The binding result in [13], in [14] and in assay [15] was “no binding (tested: 4 µM)” in each case.
